# At least one compound was matched to its structure with a doubt left.
# Tested on: PI 3-kinase
# Test: Pharmacologic inhibition of PI 3-kinase: CD69 and Bcl-XL expression by flow cytometry in OVA-stimulated splenocytes
# Type: cell-based, mice
# Conditions: 25 μM, 24 hours, DO11.10 splenocytes stimulated with OVA(323-339) peptide, CD4 positive population
smiles,measurement,setting,value
O=c1cc(N2CCOCC2)oc2c(-c3ccccc3)cccc12 [LY294002],expression of CD69,,moderate decrease
same,Bcl-XL induction,intracellular staining,complete blockade

# Reference: US20030166502A1, “Differential regulation of T cell survival and proliferation” (Washington University, priority 2001, published 2003)
